This is one part of the list.
Experiments:
Assay in all cases: log2 fold change, soluble protein after heating vs DMSO (PISA); higher = thermal stabilisation; K562 cells, 10 uM, 30 min; active = over 0.2 and 3.5 SD of the protein, either way, in both replicates (recomputed)
[1] = compound: CS(=O)(=O)c1ccc(-c2cnc(N)c(C(=O)Nc3ccccc3)n2)cc1
Method in brief: (§1)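 Thermal stability values are relative to control samples and come from duplicates. They are expressed as log2 fold changes. For measurement, K562 cells (2×10^6 cells/mL) received 10 μM compound for 30 min, and aliquots were heated for 3 min over 48°C-58°C, pooled, and extracted at 4°C in PBS with 0.5% NP-40. Soluble protein, the supernatant after 21,000xg for 90 min, was quantified by TMTpro 16plex LC-MS/MS with equalised channel sums.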

By UniProt entry, the sequences of proteins in these tests, tags left out. Where a name states a change or a piece, a line headed by the entry shows the natural chain unless it says otherwise.
UniProt P51149, whole entry, looked up: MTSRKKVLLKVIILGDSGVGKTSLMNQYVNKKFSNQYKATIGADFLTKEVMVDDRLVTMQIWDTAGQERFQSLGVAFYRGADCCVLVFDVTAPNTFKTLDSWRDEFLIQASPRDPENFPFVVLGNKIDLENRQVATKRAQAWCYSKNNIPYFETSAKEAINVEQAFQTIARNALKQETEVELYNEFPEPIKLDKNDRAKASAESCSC
UniProt Q86YS3: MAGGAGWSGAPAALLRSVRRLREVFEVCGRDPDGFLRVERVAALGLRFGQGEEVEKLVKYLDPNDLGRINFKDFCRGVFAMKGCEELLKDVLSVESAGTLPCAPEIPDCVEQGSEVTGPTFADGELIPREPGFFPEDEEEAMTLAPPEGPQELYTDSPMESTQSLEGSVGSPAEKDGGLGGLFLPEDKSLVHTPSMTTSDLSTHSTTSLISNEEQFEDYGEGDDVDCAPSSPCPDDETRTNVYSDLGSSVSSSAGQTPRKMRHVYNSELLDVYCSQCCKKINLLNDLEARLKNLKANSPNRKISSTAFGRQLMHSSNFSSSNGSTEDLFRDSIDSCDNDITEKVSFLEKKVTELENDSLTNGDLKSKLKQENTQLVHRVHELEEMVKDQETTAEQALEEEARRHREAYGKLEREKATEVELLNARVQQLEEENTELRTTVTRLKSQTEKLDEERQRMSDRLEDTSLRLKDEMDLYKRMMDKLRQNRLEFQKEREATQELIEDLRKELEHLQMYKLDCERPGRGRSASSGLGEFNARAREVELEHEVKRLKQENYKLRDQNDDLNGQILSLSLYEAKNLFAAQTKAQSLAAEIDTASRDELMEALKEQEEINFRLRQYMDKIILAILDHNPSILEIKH
UniProt Q9UJ41, whole entry, looked up: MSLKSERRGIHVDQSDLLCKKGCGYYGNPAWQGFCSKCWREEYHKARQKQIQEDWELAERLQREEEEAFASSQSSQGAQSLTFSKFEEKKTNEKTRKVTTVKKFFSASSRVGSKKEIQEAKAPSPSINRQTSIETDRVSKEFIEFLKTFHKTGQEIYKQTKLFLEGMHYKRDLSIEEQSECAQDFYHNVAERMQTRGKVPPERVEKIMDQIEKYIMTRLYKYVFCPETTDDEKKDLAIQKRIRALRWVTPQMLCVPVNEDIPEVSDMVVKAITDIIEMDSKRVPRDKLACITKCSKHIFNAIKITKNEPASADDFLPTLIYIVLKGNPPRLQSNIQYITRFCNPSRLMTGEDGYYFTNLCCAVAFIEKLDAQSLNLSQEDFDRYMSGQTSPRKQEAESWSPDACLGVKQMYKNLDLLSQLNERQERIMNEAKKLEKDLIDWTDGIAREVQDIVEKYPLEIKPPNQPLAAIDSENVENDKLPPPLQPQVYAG
UniProt Q13637: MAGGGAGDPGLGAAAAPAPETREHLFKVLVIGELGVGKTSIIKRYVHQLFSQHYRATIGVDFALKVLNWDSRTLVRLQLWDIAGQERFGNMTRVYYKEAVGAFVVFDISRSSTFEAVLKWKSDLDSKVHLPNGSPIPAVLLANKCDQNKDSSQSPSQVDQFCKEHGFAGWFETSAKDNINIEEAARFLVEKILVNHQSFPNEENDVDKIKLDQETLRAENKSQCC
UniProt O14966: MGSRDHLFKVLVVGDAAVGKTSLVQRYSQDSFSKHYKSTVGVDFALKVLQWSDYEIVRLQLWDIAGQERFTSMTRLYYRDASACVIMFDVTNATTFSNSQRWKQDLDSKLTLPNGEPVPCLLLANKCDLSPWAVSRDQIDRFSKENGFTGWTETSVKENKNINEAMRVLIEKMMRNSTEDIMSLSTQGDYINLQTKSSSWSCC
UniProt P11234: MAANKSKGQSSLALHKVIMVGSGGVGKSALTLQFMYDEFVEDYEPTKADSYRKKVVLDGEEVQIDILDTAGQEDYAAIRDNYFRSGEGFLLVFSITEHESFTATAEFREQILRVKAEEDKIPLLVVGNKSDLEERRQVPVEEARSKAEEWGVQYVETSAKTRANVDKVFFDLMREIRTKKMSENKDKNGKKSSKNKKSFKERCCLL
UniProt P62834: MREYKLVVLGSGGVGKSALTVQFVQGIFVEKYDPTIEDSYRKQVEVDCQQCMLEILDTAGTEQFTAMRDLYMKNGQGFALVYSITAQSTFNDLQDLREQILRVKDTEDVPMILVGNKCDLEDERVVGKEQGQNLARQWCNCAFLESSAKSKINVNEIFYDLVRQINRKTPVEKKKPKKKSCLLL
UniProt Q16576, whole entry, looked up: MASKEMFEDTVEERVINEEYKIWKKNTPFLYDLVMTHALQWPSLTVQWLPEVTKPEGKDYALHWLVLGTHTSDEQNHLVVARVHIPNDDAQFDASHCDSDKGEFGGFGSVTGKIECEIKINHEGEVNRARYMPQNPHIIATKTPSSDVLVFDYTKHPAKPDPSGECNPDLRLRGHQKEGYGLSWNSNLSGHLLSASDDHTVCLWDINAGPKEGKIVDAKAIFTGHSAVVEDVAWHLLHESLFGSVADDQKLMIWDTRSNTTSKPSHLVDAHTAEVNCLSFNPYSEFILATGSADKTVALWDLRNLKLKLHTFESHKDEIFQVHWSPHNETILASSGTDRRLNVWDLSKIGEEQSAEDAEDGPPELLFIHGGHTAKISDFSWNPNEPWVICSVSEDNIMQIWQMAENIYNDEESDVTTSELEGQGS
UniProt P20339: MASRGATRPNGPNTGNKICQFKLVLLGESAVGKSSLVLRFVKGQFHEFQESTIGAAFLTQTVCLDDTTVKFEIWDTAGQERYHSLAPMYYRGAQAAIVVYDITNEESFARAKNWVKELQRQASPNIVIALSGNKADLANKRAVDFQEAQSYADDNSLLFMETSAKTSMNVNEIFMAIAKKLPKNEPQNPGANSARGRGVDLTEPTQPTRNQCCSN
UniProt Q15276: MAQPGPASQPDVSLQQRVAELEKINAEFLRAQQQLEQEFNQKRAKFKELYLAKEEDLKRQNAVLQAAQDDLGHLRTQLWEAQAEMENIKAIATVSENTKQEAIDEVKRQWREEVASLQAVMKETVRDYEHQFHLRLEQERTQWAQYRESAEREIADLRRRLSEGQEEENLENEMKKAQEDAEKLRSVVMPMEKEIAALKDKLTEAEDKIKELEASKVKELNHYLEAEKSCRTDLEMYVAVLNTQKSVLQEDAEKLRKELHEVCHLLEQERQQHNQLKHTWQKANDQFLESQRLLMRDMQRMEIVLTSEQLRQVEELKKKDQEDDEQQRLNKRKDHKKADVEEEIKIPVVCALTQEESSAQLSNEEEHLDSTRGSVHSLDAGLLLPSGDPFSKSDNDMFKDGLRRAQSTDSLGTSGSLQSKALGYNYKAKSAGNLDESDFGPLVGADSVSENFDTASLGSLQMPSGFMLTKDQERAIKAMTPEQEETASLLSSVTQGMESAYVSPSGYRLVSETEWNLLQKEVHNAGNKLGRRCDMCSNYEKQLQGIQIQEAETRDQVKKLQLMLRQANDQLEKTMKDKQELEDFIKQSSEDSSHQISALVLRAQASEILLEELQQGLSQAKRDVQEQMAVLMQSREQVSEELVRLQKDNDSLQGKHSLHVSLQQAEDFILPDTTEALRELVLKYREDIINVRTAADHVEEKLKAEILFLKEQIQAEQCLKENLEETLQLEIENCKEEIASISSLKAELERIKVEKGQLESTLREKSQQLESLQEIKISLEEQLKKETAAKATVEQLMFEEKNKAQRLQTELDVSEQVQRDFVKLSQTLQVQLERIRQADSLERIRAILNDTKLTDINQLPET
UniProt Q969Q5: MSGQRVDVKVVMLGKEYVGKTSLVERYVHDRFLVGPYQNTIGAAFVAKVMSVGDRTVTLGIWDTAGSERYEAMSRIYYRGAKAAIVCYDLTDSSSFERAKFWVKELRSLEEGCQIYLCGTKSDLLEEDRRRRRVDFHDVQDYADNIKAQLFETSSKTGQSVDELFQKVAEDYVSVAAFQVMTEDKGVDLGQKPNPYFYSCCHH
UniProt Q9H2T7: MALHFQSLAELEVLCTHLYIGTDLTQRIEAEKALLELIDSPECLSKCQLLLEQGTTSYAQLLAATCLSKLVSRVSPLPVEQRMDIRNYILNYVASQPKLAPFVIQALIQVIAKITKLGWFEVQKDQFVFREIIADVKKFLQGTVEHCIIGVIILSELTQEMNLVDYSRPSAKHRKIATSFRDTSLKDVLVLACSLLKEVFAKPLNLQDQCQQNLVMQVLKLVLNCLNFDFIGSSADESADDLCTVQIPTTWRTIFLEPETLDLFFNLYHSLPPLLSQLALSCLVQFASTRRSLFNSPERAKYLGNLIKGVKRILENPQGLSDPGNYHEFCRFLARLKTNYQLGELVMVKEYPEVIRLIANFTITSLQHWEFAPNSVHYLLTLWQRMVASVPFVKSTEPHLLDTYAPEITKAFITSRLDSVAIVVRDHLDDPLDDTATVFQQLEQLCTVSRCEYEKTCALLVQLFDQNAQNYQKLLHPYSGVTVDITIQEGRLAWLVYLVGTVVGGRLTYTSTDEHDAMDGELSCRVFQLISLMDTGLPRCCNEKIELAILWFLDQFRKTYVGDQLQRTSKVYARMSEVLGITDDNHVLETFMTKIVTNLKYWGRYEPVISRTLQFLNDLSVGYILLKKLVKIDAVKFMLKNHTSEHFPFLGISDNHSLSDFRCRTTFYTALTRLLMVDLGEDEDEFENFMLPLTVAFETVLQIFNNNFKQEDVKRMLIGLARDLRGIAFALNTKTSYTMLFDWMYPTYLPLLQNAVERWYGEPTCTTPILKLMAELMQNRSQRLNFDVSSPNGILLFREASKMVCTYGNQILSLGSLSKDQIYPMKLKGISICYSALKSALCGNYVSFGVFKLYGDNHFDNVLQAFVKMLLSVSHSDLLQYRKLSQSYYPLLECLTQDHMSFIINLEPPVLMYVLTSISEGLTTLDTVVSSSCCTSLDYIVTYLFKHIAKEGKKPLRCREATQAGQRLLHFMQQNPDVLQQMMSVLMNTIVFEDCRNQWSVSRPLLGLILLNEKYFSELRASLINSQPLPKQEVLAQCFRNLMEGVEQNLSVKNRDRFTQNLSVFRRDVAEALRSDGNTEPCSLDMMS
UniProt P54725: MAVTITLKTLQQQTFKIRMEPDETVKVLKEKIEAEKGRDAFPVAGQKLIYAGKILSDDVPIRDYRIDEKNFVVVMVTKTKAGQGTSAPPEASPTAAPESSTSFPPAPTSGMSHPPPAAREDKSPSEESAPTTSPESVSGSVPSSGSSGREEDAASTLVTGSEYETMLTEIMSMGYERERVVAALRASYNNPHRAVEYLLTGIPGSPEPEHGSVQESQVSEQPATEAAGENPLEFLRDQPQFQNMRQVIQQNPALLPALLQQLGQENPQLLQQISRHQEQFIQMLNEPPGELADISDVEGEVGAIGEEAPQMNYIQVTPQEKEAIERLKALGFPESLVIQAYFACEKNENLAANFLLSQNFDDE
UniProt P20338: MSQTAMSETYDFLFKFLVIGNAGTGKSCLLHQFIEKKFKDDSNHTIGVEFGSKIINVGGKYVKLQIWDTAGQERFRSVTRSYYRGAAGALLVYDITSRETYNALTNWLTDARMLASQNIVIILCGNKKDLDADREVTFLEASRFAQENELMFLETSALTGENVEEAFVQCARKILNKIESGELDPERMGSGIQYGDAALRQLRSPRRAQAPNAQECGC
UniProt O60216: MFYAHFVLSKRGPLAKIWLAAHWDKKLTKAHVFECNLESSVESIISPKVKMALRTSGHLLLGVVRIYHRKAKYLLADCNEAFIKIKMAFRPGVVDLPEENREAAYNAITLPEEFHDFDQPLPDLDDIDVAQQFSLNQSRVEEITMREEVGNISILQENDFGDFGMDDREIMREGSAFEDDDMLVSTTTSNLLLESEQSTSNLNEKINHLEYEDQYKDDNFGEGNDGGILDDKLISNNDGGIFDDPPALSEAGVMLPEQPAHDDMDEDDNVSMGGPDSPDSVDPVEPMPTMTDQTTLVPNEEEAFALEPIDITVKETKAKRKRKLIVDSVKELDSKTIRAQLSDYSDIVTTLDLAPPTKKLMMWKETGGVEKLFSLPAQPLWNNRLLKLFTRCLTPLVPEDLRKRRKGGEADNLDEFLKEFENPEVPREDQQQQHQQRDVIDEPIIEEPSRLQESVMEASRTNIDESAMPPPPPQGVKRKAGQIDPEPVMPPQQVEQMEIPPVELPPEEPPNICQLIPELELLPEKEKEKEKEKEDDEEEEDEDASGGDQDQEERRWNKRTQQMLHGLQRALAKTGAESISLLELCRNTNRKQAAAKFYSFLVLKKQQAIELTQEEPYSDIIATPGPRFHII
UniProt P78406: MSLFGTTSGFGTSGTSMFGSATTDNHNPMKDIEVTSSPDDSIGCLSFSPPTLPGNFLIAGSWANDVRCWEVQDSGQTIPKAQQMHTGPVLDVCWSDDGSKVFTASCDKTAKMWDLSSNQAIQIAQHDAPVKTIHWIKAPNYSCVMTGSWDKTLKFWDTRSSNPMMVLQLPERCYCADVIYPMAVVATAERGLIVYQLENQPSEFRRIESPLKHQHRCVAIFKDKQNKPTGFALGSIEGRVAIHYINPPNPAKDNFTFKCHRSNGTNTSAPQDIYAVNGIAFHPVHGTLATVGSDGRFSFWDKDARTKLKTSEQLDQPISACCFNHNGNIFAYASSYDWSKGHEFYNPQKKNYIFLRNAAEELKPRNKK

crizotinib = compound: C[C@@H](Oc1cc(-c2cnn(C3CCNCC3)c2)cnc1N)c1c(Cl)ccc(F)c1Cl [crizotinib]
Method in brief: as §1

[2] = compound: C[C@@H]1COCCN1C2=NC(=NC(=C2)C3(CC3)S(=O)(=O)C)C4=C5C=CNC5=CC=C4
Method in brief: as §1

[3] = compound: C[C@H](C1=CC=C(C=C1)C(=O)NC2=C3C=CNC3=NC=C2)N
Method in brief: as §1

duvelisib = compound: C[C@H](Nc1ncnc2nc[nH]c12)c1cc2cccc(Cl)c2c(=O)n1-c1ccccc1 [duvelisib]
Method in brief: as §1

gandotinib = compound: Cc1cc(Nc2cc(CN3CCOCC3)c3nc(C)c(Cc4ccc(Cl)cc4F)n3n2)n[nH]1 [gandotinib]
Method in brief: as §1

tozasertib = compound: Cc1cc(Nc2cc(N3CCN(C)CC3)nc(Sc3ccc(NC(=O)C4CC4)cc3)n2)n[nH]1 [tozasertib]
Method in brief: as §1

[4] = compound: Cc1cc(SCc2sc(-c3ccc(C(F)(F)F)cc3)nc2C)ccc1OCC(=O)O
Method in brief: as §1

doramapimod = compound: Cc1ccc(-n2nc(C(C)(C)C)cc2NC(=O)Nc2ccc(OCCN3CCOCC3)c3ccccc23)cc1 [doramapimod]
Method in brief: as §1

ispinesib = compound: Cc1ccc(C(=O)N(CCCN)[C@@H](c2nc3cc(Cl)ccc3c(=O)n2Cc2ccccc2)C(C)C)cc1 [ispinesib]
Method in brief: as §1

Measured: log2 fold change

RAB7A (UniProt P51149)
inactive: [1] 0.027 | crizotinib 0.042 | [2] -0.019 | [3] -0.081 | duvelisib -0.001 | gandotinib -0.005 | tozasertib 0.001 | [4] -0.024 | doramapimod -0.055 | ispinesib 0.027

RAB11FIP4 (UniProt Q86YS3)
inactive: [1] 0.009

RANBP9 (UniProt Q96S59)
inactive: [1] 0.035 | crizotinib 0.057 | [2] -0.024 | [3] -0.01 | duvelisib -0.035 | gandotinib 0.032 | tozasertib 0.056 | [4] 0.005 | doramapimod -0.013 | ispinesib 0.012

RASSF5 (UniProt Q8WWW0)
inactive: [1] 0 | crizotinib 0.046 | [2] -0.165 | [3] -0.05 | duvelisib 0.06 | gandotinib 0.007 | tozasertib -0.026 | [4] -0.148 | doramapimod 0.004 | ispinesib 0.089

RAN (UniProt P62826)
inactive: [1] 0.031 | crizotinib 0.043 | [2] -0.023 | [3] -0.041 | duvelisib 0.006 | gandotinib 0.018 | tozasertib -0.04 | [4] -0.06 | doramapimod -0.025 | ispinesib -0.01

RAC2 (UniProt P15153)
inactive: [1] 0.006 | crizotinib 0.023 | [2] -0.056 | [3] -0.039 | duvelisib 0.079 | gandotinib -0.019 | tozasertib -0.051 | [4] -0.036 | doramapimod -0.028 | ispinesib 0.056

RAPGEF1 isoform 3 (UniProt Q13905)
inactive: [1] -0.037

RAB22A (UniProt Q9UL26)
inactive: [1] 0.061 | crizotinib 0.084 | [2] 0.042 | [3] -0.087 | duvelisib 0.08 | gandotinib 0.019 | tozasertib -0.016 | [4] -0.009 | doramapimod -0.028 | ispinesib 0.017

RAB10 (UniProt P61026)
inactive: [1] 0.029 | crizotinib 0.086 | [2] 0.031 | [3] -0.094 | duvelisib 0.045 | gandotinib -0.074 | tozasertib 0.023 | [4] -0.093 | doramapimod -0.034 | ispinesib 0.038

RBM26 isoform 3 (UniProt Q5T8P6)
inactive: [1] 0.066

RAB6D (UniProt Q53S08)
inactive: [1] 0.013 | crizotinib 0.018 | [2] 0.048 | [3] 0.005 | duvelisib 0.076 | gandotinib 0.016 | tozasertib -0.144 | [4] -0.079 | doramapimod 0.054 | ispinesib -0.07

RABGEF1 isoform 3 (UniProt Q9UJ41)
inactive: [1] 0.068 | crizotinib 0.024 | [2] 0.029 | [3] -0.004 | duvelisib 0.006 | gandotinib 0.01 | tozasertib 0.008 | [4] 0.07 | doramapimod -0.044 | ispinesib 0.008

RANBP3 (UniProt Q9H6Z4)
inactive: [1] 0.012 | crizotinib 0 | [2] 0.016 | [3] -0.031 | duvelisib 0.022 | gandotinib -0.031 | tozasertib 0.022 | [4] -0.013 | doramapimod 0.005 | ispinesib 0.072

Pulled one by one from the list above (2):
RAPGEF1 isoform 3 (UniProt Q13905)
inactive: [1] -0.037

RAB11FIP4 (UniProt Q86YS3)
inactive: [1] 0.009

Carrying on.

RAB6B (UniProt Q9NRW1)
inactive: [1] -0.056 | crizotinib 0.026 | [2] 0.211 | [3] -0.096 | duvelisib 0.039 | gandotinib -0.008 | tozasertib 0.001 | [4] -0.024 | doramapimod 0.006 | ispinesib 0.019

RAB32 (UniProt Q13637)
inactive: [1] -0.02 | crizotinib 0.11 | [2] 0.017 | [3] -0.058 | duvelisib -0.039 | gandotinib -0.017 | tozasertib -0.041 | [4] 0.028 | doramapimod 0.019 | ispinesib 0.047

RAB8A isoform 2 (UniProt P61006)
inactive: [1] -0.001 | crizotinib 0.04 | [2] -0.007 | [3] -0.068 | duvelisib 0.057 | gandotinib -0.065 | tozasertib -0.004 | [4] -0.011 | doramapimod -0.021 | ispinesib 0.028

RANGAP1 (UniProt P46060)
inactive: [1] 0.025 | crizotinib -0.06 | [2] 0.045 | [3] 0.011 | duvelisib -0.002 | gandotinib -0.056 | tozasertib 0.053 | [4] 0.047 | doramapimod -0.025 | ispinesib -0.014

RAB29 (UniProt O14966)
inactive: [1] 0.103 | crizotinib 0.029 | [2] 0.057 | [3] -0.024 | duvelisib -0.02 | gandotinib -0.177 | tozasertib -0.028 | [4] -0.042 | doramapimod 0.009 | ispinesib 0.028

RAD23B (UniProt P54727)
inactive: [1] -0.002 | crizotinib 0.044 | [2] 0.019 | [3] 0.001 | duvelisib 0.005 | gandotinib -0.013 | tozasertib -0.003 | [4] -0.065 | doramapimod -0.013 | ispinesib 0.008

RALB isoform 2 (UniProt P11234)
inactive: [1] 0.037 | crizotinib 0.102 | [2] 0.092 | [3] -0.105 | duvelisib 0.03 | gandotinib -0.101 | tozasertib 0.001 | [4] -0.018 | doramapimod -0.029 | ispinesib 0.083

RAP1A (UniProt P62834)
inactive: [1] 0.021 | crizotinib 0.062 | [2] 0.011 | [3] -0.088 | duvelisib 0.044 | gandotinib 0.019 | tozasertib 0.06 | [4] -0.011 | doramapimod 0.009 | ispinesib 0.185

RBBP7 isoform 2 (UniProt Q16576)
inactive: [1] 0.032 | crizotinib 0.033 | [2] 0.008 | [3] -0.013 | duvelisib 0.016 | gandotinib 0.008 | tozasertib 0.03 | [4] -0.018 | doramapimod -0.019 | ispinesib 0.09

RAB5A (UniProt P20339)
inactive: [1] 0.034 | crizotinib 0.055 | [2] 0.034 | [3] -0.098 | duvelisib 0.009 | gandotinib -0.055 | tozasertib 0.017 | [4] -0.075 | doramapimod 0.008 | ispinesib 0.024

RABEP1 (UniProt Q15276)
inactive: [1] 0.046 | crizotinib 0.044 | [2] 0.016 | [3] -0.002 | duvelisib 0.032 | gandotinib 0.002 | tozasertib 0.034 | [4] -0.01 | doramapimod -0.012 | ispinesib -0.014

RAB24 (UniProt Q969Q5)
inactive: [1] -0.01 | crizotinib 0.041 | [2] -0.02 | [3] -0.015 | duvelisib 0.001 | gandotinib 0.032 | tozasertib -0.005 | [4] -0.026 | doramapimod -0.021 | ispinesib 0.007

RAD18 (UniProt Q9NS91)
inactive: [1] 0.021 | crizotinib -0.055 | [2] 0.157 | [3] -0.034 | duvelisib 0.03 | gandotinib -0.169 | tozasertib 0.189 | [4] 0.003 | doramapimod 0.032 | ispinesib 0.122

RANBP17 (UniProt Q9H2T7)
inactive: [1] 0 | crizotinib -0.151 | [2] -0.232 | [3] -0.271 | duvelisib -0.151 | gandotinib -0.021 | tozasertib 0.014 | [4] 0.068 | doramapimod -0.046 | ispinesib 0.02

RAD9A (UniProt Q99638)
inactive: [1] 0.014 | crizotinib 0.07 | [2] 0.042 | [3] -0.119 | duvelisib -0.013 | gandotinib -0.043 | tozasertib 0.055 | [4] 0.012 | doramapimod -0.025 | ispinesib 0.025

RAD23A (UniProt P54725)
inactive: [1] -0.009 | crizotinib 0.061 | [2] 0.004 | [3] -0.036 | duvelisib -0.017 | gandotinib -0.103 | tozasertib -0.009 | [4] -0.107 | doramapimod -0.038 | ispinesib 0.022

RAB4A (UniProt P20338)
inactive: [1] 0.035 | crizotinib 0.057 | [2] 0.061 | [3] 0.01 | duvelisib -0.004 | gandotinib -0.003 | tozasertib -0.057 | [4] -0.021 | doramapimod -0.039 | ispinesib 0.033

RAD21 (UniProt O60216)
inactive: [1] 0.019 | crizotinib 0.018 | [2] 0.045 | [3] -0.059 | duvelisib 0.028 | gandotinib -0.039 | tozasertib 0.039 | [4] 0.004 | doramapimod 0.003 | ispinesib 0.04

RAE1 (UniProt P78406)
inactive: [1] 0.029 | crizotinib -0.059 | [2] -0.023 | [3] 0.103 | duvelisib -0.047 | gandotinib 0.053 | tozasertib -0.033 | [4] 0.184 | doramapimod 0.04 | ispinesib -0.102
